{"source": "PubChem BioAssay AID2685", "about": "(National Center for Advancing Translational Sciences (NCATS), 2010)", "note": "Among all 320,000 compounds or so, about 2,100 (0.66%) were called active. Inconclusive means that the source gave no clear call. Such entries were picked first, then a sample of the others. Calls come from the whole dose curve; as a rule, active = well fitted inhibition curve with a large enough effect in the signal ratio, with a control signal flat (not every such curve was filed as active); inconclusive = small, poorly fitted or top-dose-only effect, or effect the other way, or a change in a side signal; inactive = flat fitted curve, though single readings scatter; the % refers to the signal ratio. Potencies of inconclusive entries are doubtful fits and often do not repeat. % is set by controls: 0 for no effect and ±100 for the full control effect; potency is the fitted concentration of half-maximal effect."}
{"experiment": "qHTS Assay for Lipid Storage Modulators in Drosophila S3 Cells", "details": "BODIPY lipid droplet fluorescence, 18-24 h, cells fed with added oleic acid; lipid storage change, negative = inhibition: at 46.1 µM (top of the series) unless noted", "outline": "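Laser-scanning cytometry quantifies lipid droplet accumulation (500–530 nm total intensity; droplet/cell object ratio) in oleic acid-fed (400 uM added) Drosophila S3 cells treated with a concentration series. 20 uM Triacsin C defined 100% inhibition.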"}
{"compound": "O=C(O)c1ccccc1C(=O)O", "Potency": "inconclusive: 0.0651 µM [activator, single point]"}
{"compound": "Cc1cc(OCC(=O)NCC(O)c2ccccc2)c2c3c(c(=O)oc2c1)CCC3", "note": "(stereo not drawn)", "Potency": "active: 20.6 µM"}
{"compound": "CCN1C(=O)C(=C2C=C(C)N(Cc3ccco3)C(C)=C2)C(=O)N(CC)C1=S", "lipid storage change, negative = inhibition": "inconclusive: 23.5%"}
{"compound": "CC(C)C12CN3CCN(CC(C3)/C1=N\\O)C2", "Potency": "active: 6.51 µM"}
{"compound": "C[C@H]1CCC/C=C/[C@@H]2C[C@H](O)C[C@H]2[C@H](O)/C=C/C(=O)O1", "lipid storage change, negative = inhibition": "inconclusive: 0.607%"}
{"compound": "CN1CN(c2cccc([N+](=O)[O-])c2)CN=C1N[N+](=O)[O-]", "Potency": "inconclusive: 3.66 µM [activator, full curve]"}
{"compound": "Cc1nonc1OCCNc1ccc([N+](=O)[O-])c2cccnc12", "lipid storage change, negative = inhibition": "inconclusive: 1.06%"}
{"compound": "CCC(=O)c1ccc(OC)c(OC)c1", "Potency": "inconclusive: 0.731 µM [falling, full curve]"}
{"compound": "CN1C(=O)C(=Cc2cn(CC(=O)N3CCCC3)c3ccccc23)C(=O)N(C)C1=O", "lipid storage change, negative = inhibition": "inconclusive: -16.8%"}
{"compound": "CC(C(=O)Nc1ccc(Br)cc1C(=O)c1ccccc1)N1CCOCC1", "note": "(stereo not drawn)", "lipid storage change, negative = inhibition": "inconclusive: 6.11%"}
{"compound": "Nc1ccc(S(=O)(=O)N2CCCCC2c2cccnc2)cc1", "note": "(stereo not drawn)", "lipid storage change, negative = inhibition": "inconclusive: -1.53%"}
{"compound": "COC(=O)C1=C(c2ccc(-c3ccccc3)c(F)c2)C[C@@H]2CC[C@H]1N2C(=O)NCc1ccc(F)cc1", "lipid storage change, negative = inhibition": "inconclusive: -8.33%"}
{"compound": "COc1cccc(NC(=O)CCS(=O)(=O)c2ccc3c(c2)oc(=O)n3C)c1", "Potency": "inconclusive: 0.58 µM [activator, single point]"}
{"compound": "COC(=O)[C@@]1(Cc2ccc(F)cc2)[C@H]2c3cc(C(=O)N(C)C)[nH]c3C[C@H]2CN1C(=O)c1ccccc1", "Potency": "inconclusive: 13 µM [falling, partial curve, poor fit]"}
{"compound": "Cc1ccc(-n2nc(C)cc2NC(=O)COc2cc(C)cc3oc(=O)c4c(c23)CCC4)cc1", "Potency": "inconclusive: 6.51 µM [activator, partial curve, poor fit]"}
{"compound": "O=c1[nH]c(=S)[nH]c(O)c1N=Nc1cc2c(cc1[N+](=O)[O-])OCO2", "lipid storage change, negative = inhibition": "inconclusive: -15.7%"}
{"compound": "CCCCCn1c(N)c(C(=O)NCc2cccs2)c2nc3ccccc3nc21", "lipid storage change, negative = inhibition": "inconclusive: -53.5%"}
{"compound": "Nc1c(C(=O)OC2CCCCC2)c2nc3ccccc3nc2n1CC1CCCO1", "note": "(stereo not drawn)", "lipid storage change, negative = inhibition": "inconclusive: 25%"}
{"compound": "O=c1[nH]c(=O)n(Cc2ccc(F)cc2)c(O)c1C=Nc1ccc(Cl)cc1", "lipid storage change, negative = inhibition": "inconclusive: -10.1%"}
{"compound": "C=CCOC(=O)c1ccccc1N", "lipid storage change, negative = inhibition": "inconclusive: -16.8%"}
{"compound": "CC(C)COP(=O)(c1ccc(N(C)C)cc1)C(Nc1ccccc1)c1ccccc1", "note": "(stereo not drawn)", "Potency": "inconclusive: 16.4 µM [falling, single point]"}
{"compound": "O=[N+]([O-])c1ccc(N2CCCC2)cc1N/N=C1\\CN2CCC1CC2", "lipid storage change, negative = inhibition": "inconclusive: 28.8%"}
{"compound": "O=P(Nc1cccc(Cl)c1)(Oc1ccccc1)Oc1ccccc1", "lipid storage change, negative = inhibition": "inconclusive: 6.82%"}
{"compound": "O=c1[nH]c(=O)n(Cc2ccco2)c(O)c1C=NCCN1CCOCC1", "Potency": "inconclusive: 0.58 µM [falling, single point]"}
{"compound": "CCOP(=O)(C#Cc1ccccc1)C(O)c1ccc(Br)cc1", "note": "(stereo not drawn)", "lipid storage change, negative = inhibition": "inconclusive: 23.9%"}
{"compound": "CCOc1ccccc1N1C(=O)NC(=O)/C(=C/c2ccc3c4c(cccc24)CC3)C1=O", "lipid storage change, negative = inhibition": "inconclusive: 32.5%"}
{"compound": "Fc1cccc(F)c1CN1CCN(Cc2c(F)cccc2F)CC1", "lipid storage change, negative = inhibition": "inconclusive: 17.6%"}
{"compound": "COC(=O)C1=C(c2ccc(F)cc2OCc2ccccc2)C[C@@H]2CC[C@H]1N2C(=O)NCCOc1ccccc1Cl", "Potency": "inconclusive: 0.116 µM [falling, full curve]"}
{"compound": "O=C(O)C1C2CCC(O2)C1C(=O)NC1CCCCC1", "note": "(stereo not drawn)", "lipid storage change, negative = inhibition": "inconclusive: 2.09%"}
{"compound": "CC(NS(=O)(=O)c1ccc2c(c1)oc(=O)n2C)c1ccccc1", "note": "(stereo not drawn)", "Potency": "inconclusive: 29.1 µM [activator, single point]"}
{"compound": "CCCOC(=O)COc1cc(C)cc2oc(=O)c3c(c12)CCC3", "lipid storage change, negative = inhibition": "inconclusive: -17.5%"}
{"compound": "Cc1ccc2nc(N3CCN(C)CC3)[nH]c2c1", "Potency": "inconclusive: 29.1 µM [falling, single point]"}
{"compound": "COc1ccccc1-n1c(-c2cccs2)nc2ccccc2c1=O", "lipid storage change, negative = inhibition": "inconclusive: -18.3%"}
{"compound": "CCC(=O)Nc1cc(C(=O)N2CCC3(CC2)OCCO3)ccc1S(=O)(=O)c1ccc(C)cc1", "lipid storage change, negative = inhibition": "inconclusive: -43.6%"}
{"compound": "CCCCn1c(O)c(C(CC)=NCCc2ccccc2)c(=O)[nH]c1=O", "Potency": "inconclusive: 0.517 µM [activator, single point]"}
{"compound": "CSc1ccc(CN2CCN(C(=O)COc3ccc(C)cc3)CC2)cc1", "lipid storage change, negative = inhibition": "inconclusive: 14.8%"}
{"compound": "COc1cccc(CNCCc2ccc3c(c2)OCO3)c1OC", "lipid storage change, negative = inhibition": "inconclusive: 45.8%"}
{"compound": "c1ccc(-c2cc(-c3ccccc3)[n+](-c3ccccc3)c(-c3ccccc3)c2)cc1", "lipid storage change, negative = inhibition": "inconclusive: -90.1%"}
{"compound": "CCCCn1c(N)c(C(=O)OCCOC)c2nc3ccccc3nc21", "lipid storage change, negative = inhibition": "inconclusive: 16%"}
{"compound": "Cc1cccc(NP(=O)(Oc2ccccc2F)Oc2ccccc2F)c1", "lipid storage change, negative = inhibition": "inconclusive: -1.92%"}
{"compound": "CCOP(=O)(OCC)C(O)c1ccccc1", "note": "(stereo not drawn)", "lipid storage change, negative = inhibition": "inconclusive: -23%"}
{"compound": "COc1cccc(-c2nc3ccc(N4CCN(C)CC4)cc3[nH]2)c1", "lipid storage change, negative = inhibition": "inconclusive: -14.1%"}
{"compound": "O=C(O)c1ccccc1SSc1ccccc1C(=O)O", "Potency": "inconclusive: 0.58 µM [activator, single point]"}
{"compound": "CN(C)P1(N(C)C)=NC(C(F)(F)F)=NC(C(F)(F)F)=N1", "Potency": "inconclusive: 29.1 µM [falling, single point]"}
{"compound": "CC(=NCC1CCCO1)c1c(O)n(-c2ccccc2)c(=O)[nH]c1=O", "note": "(stereo not drawn)", "Potency": "inconclusive: 6.51 µM [activator, single point]"}
{"compound": "CC(=O)N1CCCSC1=Nc1ccccc1", "Potency": "inconclusive: 18.4 µM [falling, single point]"}
{"compound": "CCCC(=O)NC(Oc1ccc(OC)cc1)C(Cl)(Cl)Cl", "note": "(stereo not drawn)", "Potency": "inconclusive: 0.731 µM [falling, single point]"}
{"compound": "C=CCn1c(O)c(C(CC)=NCc2ccc3c(c2)OCO3)c(=O)[nH]c1=O", "lipid storage change, negative = inhibition": "inconclusive: 7.86%"}
